Assay results published in PubChem BioAssay AID651640 (Broad Institute, 2012).
About 6,000 (1.7%) of roughly 350,000 compounds were called active. This list was built around the results that the source calls inconclusive (neither active nor inactive); the mix of calls is not that of the screen. Cut-off read from the data, not from the text of the source: active = CPE inhibition above about 20% (passing the limit was not always enough); inconclusive = no clear call, values can overlap the other calls; tested in BHK-21 cells.

assay: protection of cells from dengue 2 killing – plate reader, single concentration, primary screen (AID 651640); details: DENV2-infected cells, cytopathic effect rescue, at 9.99 µM, hits give high values;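 note: 0% = median of neutral control wells and 100% = median of positive control wells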

Row | SMILES | CPE inhibition
1 | CCOc1ccc(C2N(c3ccc(OC)cc3)C(=O)C3CCCN32)cc1OC (centres undefined) | inconclusive: 39.9%
2 | CCCC(=O)N1CCC2(CC1)CN(C(=O)C1CCOCC1)[C@H](CO)c1[nH]c3cc(OC)ccc3c12 | inconclusive: 28.4%
3 | O=C(NCc1ccc(F)cc1)[C@@H]1[C@@H](CO)[C@@H]2Cn3c(ccc(-c4cccnc4)c3=O)[C@H]1N2 | inconclusive: 49.9%
4 | Cc1ccccc1N1Cc2ccccc2C1=O | active: 37.4%
5 | CCC(=O)N1[C@H](C#N)[C@H](c2ccccc2-c2cccc(C)c2)[C@@H]1CO | active: 23.7%
6 | Cn1nc(C(F)(F)F)c(-c2ccc(F)cc2)c1NC(=O)Nc1ccc(F)cc1 | inactive: -10.5%
7 | C[C@H](CO)N1C[C@H](C)[C@H](CN(C)Cc2ccc3c(c2)OCO3)Oc2ccc(NC(=O)CCCCCC(=O)Nc3ccccc3N)cc2CC1=O | active: 24.8%
8 | O=C(N/N=C/c1ccc(N2CCCCC2)o1)c1ccccc1[N+](=O)[O-] | inconclusive: 26.7%
9 | COc1ccc(S(=O)(=O)Nc2ccc3c(c2)C(=O)N([C@H](C)CO)C[C@H](C)[C@@H](CN(C)C(=O)Nc2ccc(F)cc2)O3)cc1 | inactive: 1.65%
10 | CCc1ccccc1NC(=O)c1cc(C)no1 | inconclusive: 20%
11 | CNC[C@H]1OCCCC[C@@H](C)Oc2ccc(NC(=O)Nc3cccc4ccccc34)cc2C(=O)N([C@@H](C)CO)C[C@H]1C | inconclusive: 21.8%
12 | CCCCn1c(N)c(N(CCOC)C(=O)CC(NC(=O)c2ccccc2Cl)c2ccccc2)c(=O)[nH]c1=O (centres undefined) | inconclusive: 23%
13 | C[C@@H]1CN([C@H](C)CO)S(=O)(=O)c2ccc(-c3ccccc3)cc2O[C@H]1CN(C)C(=O)Nc1ccccc1F | inactive: -10.4%
14 | CN1c2ccc(-c3cccc(C#N)c3)cc2[C@@H]2[C@@H](CCN2C(=O)C2CCCC2)[C@@H]1CO | inconclusive: 43.5%
15 | C[C@@H](NC(=O)[C@@H]1[C@@H](CO)[C@@H]2Cn3c(cccc3=O)[C@@H]2N1CC1CCCC1)c1ccccc1 | active: 156%
16 | C[C@H]1CCCCO[C@H](CN(C)C(=O)Nc2ccc(C(F)(F)F)cc2)[C@@H](C)CN([C@@H](C)CO)C(=O)c2cc(NC(=O)c3ccncc3)ccc2O1 | inactive: -1.22%
17 | CCN(CC)CCNc1ccc(CO)c2oc3cc(Cl)ccc3c(=O)c12 | active: 64%
18 | Cc1ccc(S(=O)(=O)Nc2cccc3c2O[C@H](CN(C)S(=O)(=O)c2cccs2)[C@@H](C)CN([C@@H](C)CO)C3=O)cc1 | active: 63.3%
19 | COc1cccc(S(=O)(=O)N2C[C@@H](O)COC[C@@H]3O[C@@H](CC(=O)N4CCCCC4)CC[C@H]32)c1 | active: 29.1%

Entries 1–2, reprinted for reference:
Row | SMILES | CPE inhibition
1 | CCOc1ccc(C2N(c3ccc(OC)cc3)C(=O)C3CCCN32)cc1OC (centres undefined) | inconclusive: 39.9%
2 | CCCC(=O)N1CCC2(CC1)CN(C(=O)C1CCOCC1)[C@H](CO)c1[nH]c3cc(OC)ccc3c12 | inconclusive: 28.4%
